# Data as given in the supplement of paper PMC12542422.
# Counter-ions that a name gives are not always drawn. ± gives the standard deviation of the averaged measurements. The list shows a part of the results. Values are raw readings; no control value is given beside them.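 Ribosome-assembly readouts in HeLa cells were imaged via ENP1 staining, with or without export block, or inducible tagged ribosomal protein reporters. Machine learning classified per-cell signal location versus solvent (DMSO) controls. Hits surpassed the DMSO false-positive mean by five standard deviations and were visually confirmed; three biological replicates.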
# Tested on: HeLa RPL29-GFP reporter
# Assay: fraction of reporter-positive cells with nuclear (nucleolar or nucleolar/nucleoplasmic) RPL29-GFP (MainHitrate); higher = more cells with nucleolar/nuclear readout signal (for ENP1 -LMB: less RNAPI inhibition; for +LMB ENP1 and RP reporters: stronger nuclear/nucleolar retention, i.e. ribosome biogenesis defect)
# Details: concentration: 1 µM; treatment time: 6 h
row,SMILES,fraction of reporter-positive cells with nuclear
1,O=C(C1CCCCC1)N1CC(=O)N2CCc3ccccc3C2C1 (stereo not given) [Praziquantel (Biltricide)],0.218 ± 0.058
2,NC[C@H]1O[C@H](O[C@H]2[C@H](O)[C@@H](O[C@H]3O[C@H](CO)[C@@H](O)[C@H](N)[C@H]3O)[C@H](N)C[C@@H]2N)[C@H](N)[C@@H](O)[C@@H]1O [Bekanamycin],0.319 ± 0.31
3,NS(=O)(=O)c1cc2c(cc1Cl)NC(C(Cl)Cl)NS2(=O)=O (stereo not given) [Trichlormethiazide (Achletin)],0.227 ± 0.058
4,NC(CO)(CO)CO [Trometamol],0.226 ± 0.067
5,CCCNC(C)C(=O)Nc1c(C)csc1C(=O)OC (stereo not given) [Articaine HCl],0.214 ± 0.086
6,[O-][n+]1cccc(CO)c1 [Mepiroxol],0.291 ± 0.19
7,O=c1[nH]cnc2c1ncn2[C@H]1CC[C@@H](CO)O1 [Didanosine (Videx)],0.215 ± 0.037
8,OC(Cn1cncn1)(Cn1cncn1)c1ccc(F)cc1F [Fluconazole],0.21 ± 0.061
9,CCOC(=O)CC(=O)N1CCSC1COc1ccccc1OC (stereo not given) [Moguisteine],0.257 ± 0.063
10,CCCCCCNC(=O)n1cc(F)c(=O)[nH]c1=O [Carmofur],0.252 ± 0.042
11,Cc1cc(-n2c(=O)[nH]c(=O)n(C)c2=O)ccc1Oc1ccc(SC(F)(F)F)cc1 [toltrazuril],0.195 ± 0.058
12,O=c1ccn([C@@H]2O[C@H](CO)[C@@H](O)[C@H]2O)c(=O)[nH]1 [Uridine],0.224 ± 0.12
13,CCc1cc(C(N)=S)ccn1 [Ethionamide],0.221 ± 0.079
14,CC(C)NC[C@H](O)COc1ccc(CCOCC2CC2)cc1 [Levobetaxolol HCl],0.216 ± 0.051
15,COc1cnc(NS(=O)(=O)c2ccc(N)cc2)nc1 [Sulfameter (Bayrena)],0.211 ± 0.079
16,Cc1ccc2c(Cl)cc(Cl)c(O)c2n1 [Chlorquinaldol],0.21 ± 0.06
17,OC(CNCC(O)C1CCc2cc(F)ccc2O1)C1CCc2cc(F)ccc2O1 (stereo not given) [Nebivolol (Bystolic)],0.215 ± 0.06
18,CC(C)NCC(O)COc1cccc2ccccc12 (stereo not given) [Propranolol HCl],0.206 ± 0.08
19,COc1cc2nc(N3CCN(C(=O)C4COc5ccccc5O4)CC3)nc(N)c2cc1OC (stereo not given) [Doxazosin mesylate],0.244 ± 0.073
20,CCCN(CCC)CCc1cccc2c1CC(=O)N2 [Ropinirole HCl],0.23 ± 0.067

# Of the compounds above, these have a carbonyl joined to an NH by a bond outside any ring:
row,SMILES,fraction of reporter-positive cells with nuclear
5,CCCNC(C)C(=O)Nc1c(C)csc1C(=O)OC (stereo not given) [Articaine HCl],0.214 ± 0.086
10,CCCCCCNC(=O)n1cc(F)c(=O)[nH]c1=O [Carmofur],0.252 ± 0.042

# Next entries.

row,SMILES,fraction of reporter-positive cells with nuclear
1,CC(=O)NC[C@H]1CN(c2ccc(N3CCOCC3)c(F)c2)C(=O)O1 [Linezolid (Zyvox)],0.204 ± 0.077
2,CN1CCC[C@@H]1CCO[C@](C)(c1ccccc1)c1ccc(Cl)cc1 [Clemastine Fumarate],0.225 ± 0.081
3,COc1ccccc1N1CCN(CCCNc2cc(=O)n(C)c(=O)n2C)CC1 [Urapidil HCl],0.225 ± 0.073
4,CC(=O)Oc1cc2c(s1)CCN(C(C(=O)C1CC1)c1ccccc1F)C2 (stereo not given) [Prasugrel (Effient)],0.2 ± 0.082
5,CN(C)[C@@H]1C(O)=C(C(N)=O)C(=O)[C@@]2(O)C(O)=C3C(=O)c4c(O)cccc4[C@@](C)(O)[C@H]3[C@H](O)[C@@H]12 [Oxytetracycline dihydrate],0.219 ± 0.065
6,OC(CCN1CCCCC1)(c1ccccc1)c1ccccc1 [Pridinol Methanesulfonate],0.286 ± 0.24
7,CCOC(=O)c1ccc(OC(=O)CCCCCNC(=N)N)cc1 [Gabexate mesylate],0.262 ± 0.073
8,N[C@@H]1CONC1=O [D-Cycloserine],0.22 ± 0.096
9,C[C@H](N)[C@H](O)c1cccc(O)c1 [Metaraminol Bitartrate],0.289 ± 0.27
10,CC[C@@H]1C(=O)OC[C@@H]1Cc1cncn1C [Pilocarpine HCl],0.207 ± 0.068
11,CCOCC(O)COc1ccc(NC(=O)CC[S+](C)C)cc1 (stereo not given) [Suplatast tosylate],0.226 ± 0.093
12,CC(C)(C)c1cc(C(C)(C)C)c(NC(=O)c2c[nH]c3ccccc3c2=O)cc1O [Ivacaftor (VX-770)],0.228 ± 0.076
13,CN(Cc1ccc(C(C)(C)C)cc1)Cc1cccc2ccccc12 [Butenafine HCl],0.224 ± 0.073
14,"Cn1cnc([N+](=O)[O-])c1Sc1ncnc2[nH]cnc12 [Azathioprine (Azasan, Imuran)]",0.21 ± 0.065
15,Cc1cc2nc3c(=O)[nH]c(=O)nc-3n(C[C@H](O)[C@H](O)[C@H](O)CO)c2cc1C [Riboflavin (Vitamin B2)],0.246 ± 0.1
16,C/C(O)=C(\C#N)C(=O)Nc1ccc(C(F)(F)F)cc1 [Teriflunomide],0.259 ± 0.088
17,CC(=O)O[C@@]12CO[C@@H]1C[C@H](O)[C@@]1(C)C(=O)[C@H](O)C3=C(C)[C@@H](OC(=O)[C@H](O)[C@@H](NC(=O)OC(C)(C)C)c4ccccc4)C[C@@](O)([C@@H](OC(=O)c4ccccc4)[C@H]21)C3(C)C [Docetaxel (Taxotere)],0.269 ± 0.087
18,CN(C)CCOC(c1ccccc1)c1ccccc1 [Diphenhydramine HCl (Benadryl)],0.202 ± 0.054
19,CCC(NC(C)C)C(O)c1ccc(O)c(O)c1 (stereo not given) [Isoetharine Mesylate],0.285 ± 0.23
20,CN(C)c1ccc(C(=C2C=CC(=[N+](C)C)C=C2)c2ccc(N(C)C)cc2)cc1 [Crystal violet],0.327 ± 0.13
